Assay results: PubChem BioAssay AID2662 (National Center for Advancing Translational Sciences (NCATS), 2010)
Screen size: about 290,000 compounds; about 110 (0.038%) were called active. Inconclusive means that the source gave no clear call. Such entries were picked first, then a sample of the others. Calls come from the whole dose curve; as a rule, active = well fitted inhibition curve with a large enough effect in the polarisation, with a control signal flat (not every such curve was filed as active); inconclusive = small, poorly fitted or top-dose-only effect, or effect the other way, or a change in a side signal; inactive = no such curve, though single readings can be large or run the other way; the % refers to the polarisation. Potencies beside an inconclusive call are fits to weak or partial responses and may not hold up. “Side channel” marks fits to a control or component signal instead of the main read-out.

Sequences of proteins named here, by UniProt entry; tags and fusion partners are left off.
UniProt Q03164, whole entry, looked up: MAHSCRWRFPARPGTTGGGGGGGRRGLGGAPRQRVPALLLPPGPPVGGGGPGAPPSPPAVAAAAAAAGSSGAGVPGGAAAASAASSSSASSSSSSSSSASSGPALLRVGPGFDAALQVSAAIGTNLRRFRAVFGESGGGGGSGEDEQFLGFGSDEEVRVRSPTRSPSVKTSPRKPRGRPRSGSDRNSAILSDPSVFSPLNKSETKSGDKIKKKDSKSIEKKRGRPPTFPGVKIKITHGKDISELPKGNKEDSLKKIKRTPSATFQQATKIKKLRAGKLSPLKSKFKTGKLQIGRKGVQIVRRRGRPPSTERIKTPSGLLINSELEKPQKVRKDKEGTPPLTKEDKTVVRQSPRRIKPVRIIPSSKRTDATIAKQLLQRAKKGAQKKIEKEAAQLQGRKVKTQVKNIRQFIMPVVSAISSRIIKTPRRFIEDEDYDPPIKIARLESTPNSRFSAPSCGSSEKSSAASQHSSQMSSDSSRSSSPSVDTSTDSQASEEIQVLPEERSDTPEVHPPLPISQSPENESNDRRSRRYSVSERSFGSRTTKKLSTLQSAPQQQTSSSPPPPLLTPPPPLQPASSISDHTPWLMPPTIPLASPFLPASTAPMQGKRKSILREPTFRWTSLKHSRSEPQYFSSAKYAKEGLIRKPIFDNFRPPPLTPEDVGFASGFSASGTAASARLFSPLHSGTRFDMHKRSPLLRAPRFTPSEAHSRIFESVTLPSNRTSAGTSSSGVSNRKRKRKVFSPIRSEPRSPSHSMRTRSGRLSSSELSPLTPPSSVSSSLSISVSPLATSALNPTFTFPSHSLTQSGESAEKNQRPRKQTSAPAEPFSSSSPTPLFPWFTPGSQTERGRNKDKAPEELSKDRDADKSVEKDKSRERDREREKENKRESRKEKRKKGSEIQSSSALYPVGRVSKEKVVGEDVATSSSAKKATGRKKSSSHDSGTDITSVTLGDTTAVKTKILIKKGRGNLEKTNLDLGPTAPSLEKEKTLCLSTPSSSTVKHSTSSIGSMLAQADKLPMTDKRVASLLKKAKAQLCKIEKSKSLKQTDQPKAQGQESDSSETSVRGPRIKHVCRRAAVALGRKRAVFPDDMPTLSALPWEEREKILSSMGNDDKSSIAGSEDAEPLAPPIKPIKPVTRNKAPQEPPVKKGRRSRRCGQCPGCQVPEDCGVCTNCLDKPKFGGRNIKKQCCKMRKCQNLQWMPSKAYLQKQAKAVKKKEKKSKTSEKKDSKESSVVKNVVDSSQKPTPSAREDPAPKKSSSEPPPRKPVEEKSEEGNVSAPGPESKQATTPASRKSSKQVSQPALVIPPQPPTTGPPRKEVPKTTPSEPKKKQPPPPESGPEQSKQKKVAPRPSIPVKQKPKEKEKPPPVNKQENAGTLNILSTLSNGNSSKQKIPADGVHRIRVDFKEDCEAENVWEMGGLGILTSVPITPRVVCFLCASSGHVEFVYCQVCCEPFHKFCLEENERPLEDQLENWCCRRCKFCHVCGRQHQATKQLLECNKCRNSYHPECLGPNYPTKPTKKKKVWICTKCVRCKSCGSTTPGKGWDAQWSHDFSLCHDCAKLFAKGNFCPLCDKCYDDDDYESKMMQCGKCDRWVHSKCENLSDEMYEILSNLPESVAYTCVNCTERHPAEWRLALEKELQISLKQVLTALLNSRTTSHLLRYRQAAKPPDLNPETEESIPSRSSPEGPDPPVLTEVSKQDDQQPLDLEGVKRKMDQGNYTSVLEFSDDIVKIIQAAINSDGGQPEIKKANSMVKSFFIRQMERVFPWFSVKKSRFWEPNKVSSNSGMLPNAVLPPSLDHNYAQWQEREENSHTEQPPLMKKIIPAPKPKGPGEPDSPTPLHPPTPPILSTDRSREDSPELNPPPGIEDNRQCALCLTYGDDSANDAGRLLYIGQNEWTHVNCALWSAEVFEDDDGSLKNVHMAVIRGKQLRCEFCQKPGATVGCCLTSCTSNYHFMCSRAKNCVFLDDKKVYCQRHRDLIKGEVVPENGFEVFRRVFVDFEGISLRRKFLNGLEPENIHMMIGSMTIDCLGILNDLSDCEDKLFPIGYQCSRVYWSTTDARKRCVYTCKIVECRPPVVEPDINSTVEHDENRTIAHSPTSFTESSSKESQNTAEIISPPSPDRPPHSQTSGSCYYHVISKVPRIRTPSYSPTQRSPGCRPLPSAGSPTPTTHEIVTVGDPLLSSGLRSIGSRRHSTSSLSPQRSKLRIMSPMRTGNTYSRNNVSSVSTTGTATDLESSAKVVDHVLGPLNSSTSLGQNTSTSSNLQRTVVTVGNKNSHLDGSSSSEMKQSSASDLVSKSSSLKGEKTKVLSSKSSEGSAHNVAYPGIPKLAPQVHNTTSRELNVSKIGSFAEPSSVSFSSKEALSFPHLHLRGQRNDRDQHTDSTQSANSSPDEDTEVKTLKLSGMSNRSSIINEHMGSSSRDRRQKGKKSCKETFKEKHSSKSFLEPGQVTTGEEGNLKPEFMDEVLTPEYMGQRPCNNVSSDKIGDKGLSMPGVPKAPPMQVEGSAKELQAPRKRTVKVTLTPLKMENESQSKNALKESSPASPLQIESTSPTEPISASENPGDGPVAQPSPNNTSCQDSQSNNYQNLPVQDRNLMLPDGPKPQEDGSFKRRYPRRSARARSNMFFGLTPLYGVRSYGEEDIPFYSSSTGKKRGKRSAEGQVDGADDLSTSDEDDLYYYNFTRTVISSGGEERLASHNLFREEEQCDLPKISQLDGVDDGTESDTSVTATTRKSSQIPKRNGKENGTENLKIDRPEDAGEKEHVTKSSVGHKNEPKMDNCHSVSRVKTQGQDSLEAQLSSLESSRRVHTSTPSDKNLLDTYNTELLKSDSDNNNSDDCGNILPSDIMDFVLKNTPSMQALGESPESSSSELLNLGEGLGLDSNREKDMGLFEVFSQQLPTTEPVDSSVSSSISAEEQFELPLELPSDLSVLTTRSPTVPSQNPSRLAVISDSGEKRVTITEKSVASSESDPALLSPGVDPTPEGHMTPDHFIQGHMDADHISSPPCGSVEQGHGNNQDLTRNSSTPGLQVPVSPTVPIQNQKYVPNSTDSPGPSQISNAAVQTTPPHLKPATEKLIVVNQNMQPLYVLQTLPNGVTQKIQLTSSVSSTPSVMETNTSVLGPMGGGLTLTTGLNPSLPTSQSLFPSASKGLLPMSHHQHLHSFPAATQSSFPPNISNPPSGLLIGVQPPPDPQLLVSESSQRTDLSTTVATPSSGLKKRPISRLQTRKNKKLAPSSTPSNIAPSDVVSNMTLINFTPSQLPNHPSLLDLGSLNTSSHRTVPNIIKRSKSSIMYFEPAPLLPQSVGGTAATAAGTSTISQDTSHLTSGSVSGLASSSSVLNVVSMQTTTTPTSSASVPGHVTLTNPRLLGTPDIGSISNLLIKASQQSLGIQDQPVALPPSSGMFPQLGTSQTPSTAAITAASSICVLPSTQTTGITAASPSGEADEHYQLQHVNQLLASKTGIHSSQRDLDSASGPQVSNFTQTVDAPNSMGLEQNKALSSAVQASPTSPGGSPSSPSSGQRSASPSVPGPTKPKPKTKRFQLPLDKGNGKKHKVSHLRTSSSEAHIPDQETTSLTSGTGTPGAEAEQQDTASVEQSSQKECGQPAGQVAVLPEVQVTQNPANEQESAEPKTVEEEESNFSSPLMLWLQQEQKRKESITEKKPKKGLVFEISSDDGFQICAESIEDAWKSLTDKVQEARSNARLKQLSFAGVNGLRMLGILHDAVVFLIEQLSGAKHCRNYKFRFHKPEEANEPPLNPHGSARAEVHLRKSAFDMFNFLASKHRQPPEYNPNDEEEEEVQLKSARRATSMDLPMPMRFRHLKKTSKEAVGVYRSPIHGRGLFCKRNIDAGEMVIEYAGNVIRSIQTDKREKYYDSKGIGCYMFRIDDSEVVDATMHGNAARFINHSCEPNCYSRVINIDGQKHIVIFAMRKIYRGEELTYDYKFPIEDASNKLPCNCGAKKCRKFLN

The compounds below were run against Histone-lysine N-methyltransferase 2A (Homo sapiens) (UniProt Q03164) (assay: qHTS Fluorescence Polarization Assay for Inhibitors of MLL CXXC domain - DNA interaction). Conditions: MLL-CXXC / FITC-HOXA9 DNA fluorescence polarization; activity change, negative = inhibition: at 115 µM (top of the series).
Outline: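 Purified MLL-CXXC (added from a 7 uM solution) was preincubated 5 min at ambient with pinned compounds in 50 mM Tris-HCl pH 7.5, 50 mM NaCl, 1 mM DTT, 0.05% BSA. Fluorescein-labeled HOX-A9 DNA (50 nM solution) followed, 30 min, then polarization read.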
Potency is the fitted concentration of half-maximal effect.

Q: Which Potency does the source give for `Cc1ccc(NC(=S)NNC(=O)CCn2cc(C)cn2)cc1` here?
A: Its Potency is inconclusive: 89.1 µM [inhibitor, single point].

Q: With `C=CCOc1ccc(/C=C/C(=O)OCC(=O)NCCC2=CCCCC2)cc1` as the compound, how does the Potency read?
A: Its Potency is inconclusive: 10 µM [fluorescent, side channel, single point].

Q: `O=C(Cc1ccccc1)N/N=C/c1ccc2cccc(O)c2n1` was tested. Which Potency did it give?
A: Its Potency is inconclusive: 8.91 µM [inhibitor, partial curve].

Q: How did the Potency turn out when `C/C(=N/N=C/c1ccc(N(C)C)cc1)c1ccccc1` was run?
A: The Potency was inconclusive: 1.58 µM [fluorescent, side channel, full curve].

Q: How did the Potency turn out when `CCN(CC)C(=O)CSc1nnc2nnc3cc(OC)ccc3n12` was run?
A: Its Potency is inconclusive: 31.6 µM [fluorescent, partial curve].

Q: Which Potency does the source give for `O=C(COC(=O)c1ccc(O)cc1)NC1CCCC1` here?
A: The Potency was inconclusive: 7.94 µM [quencher, side channel, single point].

Q: `O=C(O)CCCCCN1C(=O)C(O)=C(C(=O)/C=C/c2ccccc2)C1c1cccc([N+](=O)[O-])c1` (stereo not given) was tested. Which Potency did it give?
A: Its Potency is inconclusive: 25.1 µM [inhibitor, partial curve].

Q: With `CC1=CC(C#N)(C#N)C(C#N)(C#N)C(c2ccccc2)N1` (stereo not given) as the compound, how does the Potency read?
A: The Potency was active: 39.8 µM.

Q: `CC1(C)Cc2c(sc(NC(=O)C(=O)N3CCCCC3)c2C(=O)O)CO1` was tested. Which Potency did it give?
A: Its Potency is inconclusive: 112 µM [fluorescent, side channel, partial curve, poor fit].

Q: How did the Potency turn out when `Cc1ccc(Oc2ncccc2COC(=O)Nc2ccccc2C)cc1` was run?
A: Its Potency is inconclusive: 1.26 µM [fluorescent, side channel, full curve, poor fit].

Q: How did the “activity change, negative = inhibition” value turn out when `COCc1c(C(=O)N/N=C\c2ccccn2)nnn1-c1nonc1N` was run?
A: The value was inactive: -16.7%.

Q: `Clc1ccc(NNc2ccnc3cc(Cl)ccc23)cc1` was tested. Which Potency did it give?
A: Its Potency is inconclusive: 1.12 µM [fluorescent, side channel, full curve, poor fit].

Q: Which “activity change, negative = inhibition” value does the source give for `CC(C)CSC1=NSC2=NC(=O)/C(=C\c3cccs3)C(=N)N12` here?
A: Its value is inactive: -3.52%.

Q: `O=C(O)CCCn1cc(NC(=O)c2cc(F)c(F)cc2Cl)cn1` was tested. Which Potency did it give?
A: The Potency was inconclusive: 89.1 µM [fluorescent, side channel, partial curve].

Q: Which Potency does the source give for `COc1ccccc1CCN=C(N)NS(=O)(=O)c1ccc(C)c(C)c1` here?
A: The Potency was inconclusive: 14.1 µM [quencher, side channel, single point].

Q: For `COc1cccc(/C=C/c2ccc3cccc(O)c3n2)c1OC`, which Potency is on record?
A: The Potency was inconclusive: 39.8 µM [fluorescent, side channel, partial curve].

Q: How did the “activity change, negative = inhibition” value turn out when `COC(=O)c1ccc(Cn2cnc3c(cnn3-c3ccc(F)cc3)c2=O)o1` was run?
A: Its value is inactive: -10.9%.

Q: With `CCOc1ccc2nc(NCCNC(=O)c3cc(OC)c(OC)c(OC)c3)c(C#N)cc2c1` as the compound, how does the Potency read?
A: Its Potency is inconclusive: 11.2 µM [fluorescent, side channel, full curve].

Q: Which “activity change, negative = inhibition” value does the source give for `O=C(NCc1ccccc1)N(Cc1nc2ccccc2c(=O)[nH]1)C1CCCC1` here?
A: Its value is inactive: -9.82%.

Q: With `NS(=O)(=O)c1cccc(NC(=O)CCC(=O)c2cccs2)c1` as the compound, how does the Potency read?
A: The Potency was inconclusive: 70.8 µM [fluorescent, single point].

Q: How did the Potency turn out when `CCN1CCN(CCCNC(=O)c2cc3c(=O)[nH]c4ccccc4c3s2)CC1` was run?
A: The Potency was inconclusive: 70.8 µM [inhibitor, single point].

Q: `CN1C(=O)/C(=C/c2cn(CC(=O)N3CCCCC3)c3ccccc23)NC1=S` was tested. Which Potency did it give?
A: The Potency was inconclusive: 35.5 µM [fluorescent, side channel, partial curve].

Q: For `CC1(C)CC2CC(C)(CN2C(=O)COC(=O)c2cc(Cl)cc(Cl)c2N)C1` (stereo not given), which “activity change, negative = inhibition” value is on record?
A: Its value is inactive: 2.69%.

Q: Which Potency does the source give for `CCc1ccc2nc(N(CCCN(C)C)C(=O)c3ccc4c(c3)OCCO4)sc2c1` here?
A: Its Potency is inconclusive: 14.1 µM [fluorescent, side channel, single point].

Q: With `COc1ccc(C(C[N+](=O)[O-])C2(c3ccc(OC)c(OC)c3)C(=O)c3ccccc3C2=O)cc1` (stereo not given) as the compound, how does the Potency read?
A: Its Potency is inconclusive: 31.6 µM [inhibitor, partial curve].

Q: For `N#Cc1nc(-c2ccc(OCc3ccccc3Cl)cc2)oc1NCCCn1ccnc1`, which Potency is on record?
A: Its Potency is inconclusive: 14.1 µM [quencher, side channel, partial curve].

Q: `COc1ccc(/C=C/c2nnc(NC(=O)COc3ccccc3)s2)cc1` was tested. Which “activity change, negative = inhibition” value did it give?
A: Its value is inactive: -4.92%.

Q: Which Potency does the source give for `CN(C)c1ccc(/C=C/c2nc3ccccc3c(=O)n2-c2ccc(C(=O)O)cc2)cc1` here?
A: Its Potency is inconclusive: 31.6 µM [fluorescent, side channel, partial curve].

Q: `O=C1c2ccccc2-c2onc3ccc(Oc4ccccc4)c1c23` was tested. Which Potency did it give?
A: The Potency was inconclusive: 31.6 µM [inhibitor, single point].

Q: How did the Potency turn out when `Cc1ccsc1C(=O)Nc1ccc(O)c(-c2nc3ccccc3s2)c1` was run?
A: The Potency was inconclusive: 10 µM [fluorescent, side channel, partial curve].

Q: How did the Potency turn out when `O=C1C2CC=CCC2C(=O)N1c1ncn[nH]1` (stereo not given) was run?
A: Its Potency is inconclusive: 8.91 µM [fluorescent, side channel, single point].

Q: With `CCN(CC)S(=O)(=O)c1cccc(C(=O)N/N=C/c2ccccn2)c1` as the compound, how does the Potency read?
A: The Potency was inconclusive: 11.2 µM [inhibitor, partial curve].

Q: `c1ccc(-n2c3ccccc3c3ccccc32)cc1` was tested. Which “activity change, negative = inhibition” value did it give?
A: The value was inactive: -1.21%.

Q: How did the Potency turn out when `O=C(O)c1ccccc1NS(=O)(=O)c1ccc(NNC(=S)Nc2ccc(OC(F)F)cc2)c([N+](=O)[O-])c1` was run?
A: Its Potency is inconclusive: 35.5 µM [quencher, side channel, partial curve].

Q: With `Oc1ccccc1CNc1cnc2ccccc2c1` as the compound, how does the “activity change, negative = inhibition” value read?
A: The value was inactive: -2.19%.

Q: With `Nc1c(C(=O)NCCc2ccc(Cl)cc2)sc2ccc(S(=O)(=O)N3CCCCC3)cc12` as the compound, how does the Potency read?
A: The Potency was inconclusive: 63.1 µM [inhibitor, single point].

Q: With `Cc1[nH]c(-c2ccccn2)nc(=S)c1Cl` as the compound, how does the Potency read?
A: Its Potency is inconclusive: 12.6 µM [inhibitor, partial curve].

Q: For `COc1ccc(C2NCCC3(O)CCCCC23)c(OC)c1OC` (stereo not given), which “activity change, negative = inhibition” value is on record?
A: Its value is inactive: 0.699%.

Q: With `CC(=O)COc1ccc2c(c1C)O/C(=C\c1ccco1)C2=O` as the compound, how does the Potency read?
A: The Potency was inconclusive: 8.91 µM [fluorescent, side channel, partial curve].

Q: Which Potency does the source give for `Cc1sc2nc(COC(=O)c3cccc(S(=O)(=O)N(C)c4ccccc4)c3)[nH]c(=O)c2c1C` here?
A: The Potency was inconclusive: 63.1 µM [fluorescent, side channel, single point].
